Values of other authors in patent publication US20080262071A1 (priority 2004, published 2008).

Conditions: PMS subjects; cited from earlier work

CC(C)NCC(O)COc1ccc(CC(N)=O)cc1 (stereo not shown) [atenolol]
irritability, vigor, elation and friendliness ratings: significant improvements
